Measurements as given in the supplement of paper PMC12595434, “Development of retinoid nuclear receptor pathway antagonists through targeting aldehyde dehydrogenase 1A3” (iScience, 2025).
This is one part of the list. Single values of this set are uncertain.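 Tm was set to 64 °C where no melting was found, and many curves are irregular.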

The chains behind the UniProt entries cited, without tags or fusion partners. Where a name states a change or a piece, a line headed by the entry shows the natural chain unless it says otherwise.
UniProt P30837: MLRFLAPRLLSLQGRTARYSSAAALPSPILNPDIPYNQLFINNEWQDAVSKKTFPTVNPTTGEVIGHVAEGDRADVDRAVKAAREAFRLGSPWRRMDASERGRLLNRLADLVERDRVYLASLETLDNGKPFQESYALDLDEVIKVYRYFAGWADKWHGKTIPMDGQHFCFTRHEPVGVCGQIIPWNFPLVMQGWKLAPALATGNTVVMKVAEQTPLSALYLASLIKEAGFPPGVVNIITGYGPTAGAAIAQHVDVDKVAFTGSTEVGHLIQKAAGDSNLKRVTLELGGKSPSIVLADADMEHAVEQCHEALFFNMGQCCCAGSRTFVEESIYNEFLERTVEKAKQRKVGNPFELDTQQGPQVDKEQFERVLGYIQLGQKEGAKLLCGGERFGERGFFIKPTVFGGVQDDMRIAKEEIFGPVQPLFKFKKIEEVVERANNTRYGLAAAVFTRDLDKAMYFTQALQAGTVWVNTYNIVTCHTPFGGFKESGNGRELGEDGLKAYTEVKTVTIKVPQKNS
UniProt P25440, whole entry, looked up: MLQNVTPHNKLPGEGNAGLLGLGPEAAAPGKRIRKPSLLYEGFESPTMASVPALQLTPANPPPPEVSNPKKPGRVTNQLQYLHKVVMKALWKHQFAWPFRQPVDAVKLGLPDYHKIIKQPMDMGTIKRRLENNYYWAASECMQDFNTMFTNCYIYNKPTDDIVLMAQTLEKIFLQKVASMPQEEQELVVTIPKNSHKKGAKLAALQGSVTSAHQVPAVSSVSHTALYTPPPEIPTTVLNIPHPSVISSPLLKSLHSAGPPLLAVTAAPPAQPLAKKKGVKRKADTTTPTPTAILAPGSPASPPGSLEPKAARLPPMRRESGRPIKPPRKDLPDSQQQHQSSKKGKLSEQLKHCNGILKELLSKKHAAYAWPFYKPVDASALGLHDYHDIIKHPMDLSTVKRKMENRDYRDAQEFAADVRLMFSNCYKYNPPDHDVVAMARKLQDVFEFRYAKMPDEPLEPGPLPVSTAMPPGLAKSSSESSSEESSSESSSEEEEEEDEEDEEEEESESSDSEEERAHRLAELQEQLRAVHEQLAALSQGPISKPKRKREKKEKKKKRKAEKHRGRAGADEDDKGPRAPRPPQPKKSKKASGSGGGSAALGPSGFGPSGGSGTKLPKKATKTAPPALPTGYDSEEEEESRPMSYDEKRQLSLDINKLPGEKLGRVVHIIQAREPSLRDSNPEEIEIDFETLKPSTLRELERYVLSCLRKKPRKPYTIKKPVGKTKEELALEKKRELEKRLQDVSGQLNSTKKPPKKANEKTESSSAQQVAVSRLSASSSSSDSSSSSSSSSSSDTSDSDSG
UniProt P30153, whole entry: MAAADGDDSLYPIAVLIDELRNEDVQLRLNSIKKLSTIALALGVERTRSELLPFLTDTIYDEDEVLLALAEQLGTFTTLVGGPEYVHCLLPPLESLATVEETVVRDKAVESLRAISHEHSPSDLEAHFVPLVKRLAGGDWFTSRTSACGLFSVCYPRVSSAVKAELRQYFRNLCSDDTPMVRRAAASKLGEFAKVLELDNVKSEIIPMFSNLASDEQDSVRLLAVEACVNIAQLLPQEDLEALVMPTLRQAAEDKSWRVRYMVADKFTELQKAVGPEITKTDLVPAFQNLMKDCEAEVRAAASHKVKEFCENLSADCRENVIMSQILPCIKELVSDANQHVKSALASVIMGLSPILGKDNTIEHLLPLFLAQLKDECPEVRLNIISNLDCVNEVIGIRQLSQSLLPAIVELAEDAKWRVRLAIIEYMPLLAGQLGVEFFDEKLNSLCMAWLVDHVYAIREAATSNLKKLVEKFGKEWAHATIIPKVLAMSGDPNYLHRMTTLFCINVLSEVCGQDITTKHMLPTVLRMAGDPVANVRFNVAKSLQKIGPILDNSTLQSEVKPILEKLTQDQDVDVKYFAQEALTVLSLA
UniProt P25686: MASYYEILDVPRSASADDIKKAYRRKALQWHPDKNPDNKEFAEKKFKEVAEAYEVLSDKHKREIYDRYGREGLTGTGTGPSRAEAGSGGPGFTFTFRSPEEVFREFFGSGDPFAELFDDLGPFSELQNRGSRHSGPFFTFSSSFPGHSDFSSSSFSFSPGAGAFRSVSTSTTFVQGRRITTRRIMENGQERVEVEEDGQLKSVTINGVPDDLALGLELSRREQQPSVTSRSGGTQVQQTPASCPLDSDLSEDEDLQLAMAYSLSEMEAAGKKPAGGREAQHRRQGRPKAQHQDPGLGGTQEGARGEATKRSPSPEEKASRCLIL
UniProt P35610: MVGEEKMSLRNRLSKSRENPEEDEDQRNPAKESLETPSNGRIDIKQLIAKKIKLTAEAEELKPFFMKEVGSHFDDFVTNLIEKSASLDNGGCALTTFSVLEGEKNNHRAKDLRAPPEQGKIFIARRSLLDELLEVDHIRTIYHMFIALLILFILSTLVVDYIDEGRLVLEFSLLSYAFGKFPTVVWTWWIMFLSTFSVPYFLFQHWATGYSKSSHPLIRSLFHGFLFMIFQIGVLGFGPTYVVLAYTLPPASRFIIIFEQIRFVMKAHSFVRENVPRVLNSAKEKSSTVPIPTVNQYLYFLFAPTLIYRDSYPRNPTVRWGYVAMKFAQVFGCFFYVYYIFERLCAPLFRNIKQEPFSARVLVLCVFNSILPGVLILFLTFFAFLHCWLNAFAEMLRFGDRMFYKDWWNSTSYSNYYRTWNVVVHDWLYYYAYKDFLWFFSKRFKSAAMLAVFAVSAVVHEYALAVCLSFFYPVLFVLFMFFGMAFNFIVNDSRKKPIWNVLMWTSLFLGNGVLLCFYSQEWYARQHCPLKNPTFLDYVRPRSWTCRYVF
UniProt P35659: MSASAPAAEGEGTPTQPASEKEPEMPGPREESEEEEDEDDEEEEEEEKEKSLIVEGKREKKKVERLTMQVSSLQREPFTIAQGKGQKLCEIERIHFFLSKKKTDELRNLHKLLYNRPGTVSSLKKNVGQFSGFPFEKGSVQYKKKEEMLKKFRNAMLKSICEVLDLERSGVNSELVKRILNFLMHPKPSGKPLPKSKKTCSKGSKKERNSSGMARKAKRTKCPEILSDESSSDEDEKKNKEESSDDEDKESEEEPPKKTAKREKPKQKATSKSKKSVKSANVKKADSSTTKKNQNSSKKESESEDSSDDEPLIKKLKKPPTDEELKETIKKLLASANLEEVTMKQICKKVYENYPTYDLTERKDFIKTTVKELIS
UniProt P30305: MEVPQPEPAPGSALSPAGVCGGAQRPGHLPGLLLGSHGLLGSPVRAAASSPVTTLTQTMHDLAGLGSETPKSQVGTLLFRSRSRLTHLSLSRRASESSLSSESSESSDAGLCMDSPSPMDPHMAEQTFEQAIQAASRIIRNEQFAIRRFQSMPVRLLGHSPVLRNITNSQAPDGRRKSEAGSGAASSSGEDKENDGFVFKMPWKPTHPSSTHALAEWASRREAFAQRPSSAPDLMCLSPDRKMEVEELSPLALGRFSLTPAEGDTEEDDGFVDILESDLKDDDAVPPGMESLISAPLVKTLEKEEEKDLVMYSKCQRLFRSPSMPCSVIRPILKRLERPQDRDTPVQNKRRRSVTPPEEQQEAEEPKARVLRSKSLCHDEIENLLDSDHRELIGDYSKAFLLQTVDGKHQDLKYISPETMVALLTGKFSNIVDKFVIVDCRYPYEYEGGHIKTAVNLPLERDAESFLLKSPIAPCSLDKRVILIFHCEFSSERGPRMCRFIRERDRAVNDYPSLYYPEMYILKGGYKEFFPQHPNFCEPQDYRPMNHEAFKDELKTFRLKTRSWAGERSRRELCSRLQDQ
UniProt P27540, whole entry: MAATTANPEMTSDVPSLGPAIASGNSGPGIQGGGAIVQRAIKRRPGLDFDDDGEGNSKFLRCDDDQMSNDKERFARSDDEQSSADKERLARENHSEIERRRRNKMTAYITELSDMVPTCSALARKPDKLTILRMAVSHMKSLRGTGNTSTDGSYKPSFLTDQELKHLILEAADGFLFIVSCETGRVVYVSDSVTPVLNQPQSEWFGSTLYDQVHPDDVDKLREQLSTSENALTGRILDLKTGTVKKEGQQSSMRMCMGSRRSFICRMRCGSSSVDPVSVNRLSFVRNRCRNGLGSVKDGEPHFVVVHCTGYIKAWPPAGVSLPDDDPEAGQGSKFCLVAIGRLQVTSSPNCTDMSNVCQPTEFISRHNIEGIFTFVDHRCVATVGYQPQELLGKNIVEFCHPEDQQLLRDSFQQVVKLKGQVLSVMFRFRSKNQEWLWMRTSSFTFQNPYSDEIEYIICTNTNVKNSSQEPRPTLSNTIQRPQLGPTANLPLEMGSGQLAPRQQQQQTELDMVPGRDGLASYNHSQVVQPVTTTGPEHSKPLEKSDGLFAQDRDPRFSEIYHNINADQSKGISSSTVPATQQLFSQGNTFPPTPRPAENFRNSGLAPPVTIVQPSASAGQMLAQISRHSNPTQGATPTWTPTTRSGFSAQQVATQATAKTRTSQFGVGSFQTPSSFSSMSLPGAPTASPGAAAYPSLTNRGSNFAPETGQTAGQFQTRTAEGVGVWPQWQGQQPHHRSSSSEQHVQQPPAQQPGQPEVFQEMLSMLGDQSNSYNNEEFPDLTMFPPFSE
UniProt P35790, whole entry, looked up: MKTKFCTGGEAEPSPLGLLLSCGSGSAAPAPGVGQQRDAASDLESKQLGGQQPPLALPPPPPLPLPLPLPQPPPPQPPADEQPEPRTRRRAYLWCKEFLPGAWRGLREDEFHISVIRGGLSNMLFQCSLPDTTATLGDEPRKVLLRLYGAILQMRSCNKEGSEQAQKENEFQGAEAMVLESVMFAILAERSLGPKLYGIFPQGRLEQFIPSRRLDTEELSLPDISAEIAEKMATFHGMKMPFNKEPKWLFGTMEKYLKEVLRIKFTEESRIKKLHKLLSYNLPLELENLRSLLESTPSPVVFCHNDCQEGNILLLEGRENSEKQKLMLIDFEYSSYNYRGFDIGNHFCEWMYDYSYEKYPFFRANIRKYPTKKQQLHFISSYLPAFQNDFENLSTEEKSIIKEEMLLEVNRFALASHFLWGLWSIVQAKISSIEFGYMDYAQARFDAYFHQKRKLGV
UniProt P33121: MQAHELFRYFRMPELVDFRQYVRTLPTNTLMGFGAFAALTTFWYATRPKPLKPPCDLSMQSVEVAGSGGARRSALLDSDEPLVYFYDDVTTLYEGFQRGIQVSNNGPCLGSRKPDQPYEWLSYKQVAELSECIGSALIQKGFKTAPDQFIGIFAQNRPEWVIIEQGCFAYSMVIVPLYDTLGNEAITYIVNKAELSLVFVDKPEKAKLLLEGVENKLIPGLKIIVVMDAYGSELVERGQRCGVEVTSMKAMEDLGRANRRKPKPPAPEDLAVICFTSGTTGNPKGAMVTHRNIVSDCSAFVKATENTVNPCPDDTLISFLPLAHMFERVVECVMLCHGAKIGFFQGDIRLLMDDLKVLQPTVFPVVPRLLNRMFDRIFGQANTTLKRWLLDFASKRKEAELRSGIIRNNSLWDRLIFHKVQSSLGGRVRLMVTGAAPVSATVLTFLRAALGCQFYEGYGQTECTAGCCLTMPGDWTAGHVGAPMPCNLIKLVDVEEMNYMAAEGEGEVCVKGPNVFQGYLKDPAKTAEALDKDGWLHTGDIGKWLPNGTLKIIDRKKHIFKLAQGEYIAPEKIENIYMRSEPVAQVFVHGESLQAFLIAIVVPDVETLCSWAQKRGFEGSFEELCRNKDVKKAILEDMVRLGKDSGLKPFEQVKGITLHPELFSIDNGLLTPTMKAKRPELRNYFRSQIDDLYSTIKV
UniProt P35244: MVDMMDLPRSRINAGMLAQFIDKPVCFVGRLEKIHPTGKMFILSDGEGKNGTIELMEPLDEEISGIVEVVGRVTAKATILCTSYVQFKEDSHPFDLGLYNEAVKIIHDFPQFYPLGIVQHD
UniProt P23919: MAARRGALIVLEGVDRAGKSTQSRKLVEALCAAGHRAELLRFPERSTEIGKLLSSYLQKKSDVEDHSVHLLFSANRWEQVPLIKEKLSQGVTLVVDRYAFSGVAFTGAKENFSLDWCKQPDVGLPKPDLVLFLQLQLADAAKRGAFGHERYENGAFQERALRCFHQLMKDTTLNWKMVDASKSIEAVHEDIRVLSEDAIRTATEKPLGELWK
UniProt P27361, whole entry: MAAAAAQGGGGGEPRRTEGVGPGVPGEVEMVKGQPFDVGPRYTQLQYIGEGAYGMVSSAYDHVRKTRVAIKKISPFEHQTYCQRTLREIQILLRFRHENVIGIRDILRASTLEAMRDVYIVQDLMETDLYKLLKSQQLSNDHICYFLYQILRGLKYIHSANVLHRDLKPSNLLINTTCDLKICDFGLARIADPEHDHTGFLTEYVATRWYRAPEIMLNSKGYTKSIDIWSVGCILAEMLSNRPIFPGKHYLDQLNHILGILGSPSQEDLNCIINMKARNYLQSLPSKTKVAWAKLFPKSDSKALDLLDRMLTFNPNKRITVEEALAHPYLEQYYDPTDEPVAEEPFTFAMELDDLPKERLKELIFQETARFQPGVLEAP

Compound: CCc1cnccc1C(=O)Nc1cc2c(cc1F)NC(=O)CC2
Assay: melting temperature shift (DMSO Tm minus MBE1-treated Tm) in cellular thermal proteome profiling; higher = less thermal stabilization by MBE1 (negative = stabilized by MBE1)
Details: A375

| Target | melting temperature shift (MBE1 concentration: 100 nM) | melting temperature shift (MBE1 concentration: 1 uM) |
| --- | --- | --- |
| L1CAM (UniProt P32004) | 0.969 °C | -1.43 °C |
| KIF5B (UniProt P33176) | -0.244 °C | 0.403 °C |
| ALDH1B1 (UniProt P30837) | -0.651 °C | 0.0268 °C |
| BRD2 (UniProt P25440) | -0.314 °C | -0.352 °C |
| RXRB (UniProt P28702) | -0.314 °C | -0.538 °C |
| PPP2R1A (UniProt P30153) | -0.402 °C | 0.443 °C |
| DNAJB2 (UniProt P25686) | 0.282 °C | 0.0366 °C |
| SP100 (UniProt P23497) | -0.966 °C | 0.745 °C |
| SOAT1 (UniProt P35610) | -0.407 °C | 1.07 °C |
| DEK (UniProt P35659) | -0.687 °C | -0.301 °C |
| CDC25B (UniProt P30305) | 0.189 °C | -0.238 °C |
| ARNT (UniProt P27540) | -0.0244 °C | -0.171 °C |
| CHKA (UniProt P35790) | -1.19 °C | 0.537 °C |
| ACSL1 (UniProt P33121) | 0.159 °C | -0.0977 °C |
| RPA3 (UniProt P35244) | -0.36 °C | 2.1 °C |
| NFYA (UniProt P23511) | -0.422 °C | -2.34 °C |
| DTYMK (UniProt P23919) | -1.06 °C | 1.11 °C |
| SSFA2 (UniProt P28290) | -1.25 °C | -0.533 °C |
| UniProt P21980 | -0.409 °C | 0.0546 °C |
| NUDT1 (UniProt P36639) | -0.966 °C | 0.59 °C |
| UniProt P27361 | 1.03 °C | 1.03 °C |

For convenience, part of the list above.

| Target | melting temperature shift (MBE1 concentration: 100 nM) | melting temperature shift (MBE1 concentration: 1 uM) |
| --- | --- | --- |
| RPA3 (UniProt P35244) | -0.36 °C | 2.1 °C |
| NFYA (UniProt P23511) | -0.422 °C | -2.34 °C |
| DTYMK (UniProt P23919) | -1.06 °C | 1.11 °C |
| SSFA2 (UniProt P28290) | -1.25 °C | -0.533 °C |
